The target of test [1] is recombinant protein carbonic anhydrase 12 (R&D Systems) (Homo sapiens (Human)) (UniProt O43570). Description: ELISA, recombinant CA12 coated at 100 ng/well. In general terms: In an ELISA, binding on a coated surface is turned into a signal by an enzyme label.
Test [2] shares this target. Briefly: ELISA, Western blot and sandwich ELISA on recombinant CA12 (signal of 27B6 'relatively low' in the direct formats).
Test [3] has the same target. Briefly: Western blot of boiled recombinant CA12.
The target is the same in test [4]. Description: sandwich ELISA, chimeric 27B6 coated as capture, recombinant CA12 from 100 ng/ml, 4B4 as detector.

Amino acid sequences for entries named in this document (tags omitted). A change or cut given only in a name is not applied to a line headed by its entry.
UniProt O43570: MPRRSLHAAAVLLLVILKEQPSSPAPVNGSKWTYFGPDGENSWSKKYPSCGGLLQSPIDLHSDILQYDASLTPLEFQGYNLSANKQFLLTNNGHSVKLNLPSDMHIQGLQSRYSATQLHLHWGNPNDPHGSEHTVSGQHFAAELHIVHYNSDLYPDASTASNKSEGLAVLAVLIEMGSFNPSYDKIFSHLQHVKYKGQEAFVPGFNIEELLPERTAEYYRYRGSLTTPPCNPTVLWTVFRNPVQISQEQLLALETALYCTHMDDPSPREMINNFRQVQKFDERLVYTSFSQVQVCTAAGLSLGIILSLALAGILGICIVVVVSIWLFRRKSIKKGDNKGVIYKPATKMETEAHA

Results are given in words; binding and its absence hold for the method and conditions named. Some results given as binding are weak or reduced against the parent protein; the word gives no strength.

B1: 27B6 monoclonal antibody (antibody, mouse IgG1, V domains shown)
VH: QVQLQQSGPQLVWPGASVKISCNTSGYSFTNYWIHWVKQRPGQGLEWIGMIDPSDSETRLNQKFKDKTTLTVDRSSSTAYMQVSSSTSEDSAVYYCTRGIRGGYYAMDYWGQGTSVTVSS
VL: DIQMTQTTSSLSASLGDRVTISCRASQDISNYLNWYQQKPEGTVKLLIYYTSRLHSGVPSRFSGSGSGTDYSLTISNLEQEDIATYFCQQGDTLPRTFGEGTKLEIR
notes: also called 27B6 Ab; mouse 27B6 antibody
Consider B1, for which the binding entry in test [1], in test [2] and in test [3] was “binds” each time.

B2: 27B6 chimeric antibody (antibody, V domains shown)
VH: QVQLQQSGPQLVWPGASVKISCNTSGYSFTNYWIHWVKQRPGQGLEWIGMIDPSDSETRLNQKFKDKTTLTVDRSSSTAYMQVSSSTSEDSAVYYCTRGIRGGYYAMDYWGQGTSVTVSS
VL: DIQMTQTTSSLSASLGDRVTISCRASQDISNYLNWYQQKPEGTVKLLIYYTSRLHSGVPSRFSGSGSGTDYSLTISNLEQEDIATYFCQQGDTLPRTFGEGTKLEIR
notes: Chimeric antibody: mouse 27B6 variable regions, the rest 'substituted with the Fc of the human antibody'; Produced in CHO DG44 cells; also called chimeric 27B6; 27B6-HuIgFc
On to B2, for which, in test [4], the binding result is given as “binds”.

B3: 4B4 monoclonal antibody (antibody, V domains shown)
VH: EIQLQQSGPELVKPGASVKISCKASGYSYTDYNIYWVRQSQGKSLDWIGYIDPANGDTTYNQKFKGKATLTVDKSSSTAFMHLNSLTSDGSAVYFCARPIYYGVYWYFDVWGAGTTVTVS
VL: DIVMTQAAPSVPVTPGESVSISCRSSKSLLHSNGNTYLYWFLQRPGQSPQLLIYRMSNLASGVPDRFSGSGSGTAFTLRISRVEAEDVGVYYCMQHLEYPFTFGSGTKLEIK
notes: Mouse hybridoma antibody; also called 4B4 Ab; mouse 4B4 antibody
Take B3: the binding entry in test [1], in test [4] and in test [3] was “binds” throughout.

The record behind these values is patent US20170342161A1 (APROGEN KIC, published 2017).
